# Literature values in patent US10991450B2, “Materials and methods for determining metabolizer status in humans” (priority 2012, dated 2021).
# By UniProt entry, the sequences of proteins in these tests, tags left out.
# UniProt P08684, whole entry: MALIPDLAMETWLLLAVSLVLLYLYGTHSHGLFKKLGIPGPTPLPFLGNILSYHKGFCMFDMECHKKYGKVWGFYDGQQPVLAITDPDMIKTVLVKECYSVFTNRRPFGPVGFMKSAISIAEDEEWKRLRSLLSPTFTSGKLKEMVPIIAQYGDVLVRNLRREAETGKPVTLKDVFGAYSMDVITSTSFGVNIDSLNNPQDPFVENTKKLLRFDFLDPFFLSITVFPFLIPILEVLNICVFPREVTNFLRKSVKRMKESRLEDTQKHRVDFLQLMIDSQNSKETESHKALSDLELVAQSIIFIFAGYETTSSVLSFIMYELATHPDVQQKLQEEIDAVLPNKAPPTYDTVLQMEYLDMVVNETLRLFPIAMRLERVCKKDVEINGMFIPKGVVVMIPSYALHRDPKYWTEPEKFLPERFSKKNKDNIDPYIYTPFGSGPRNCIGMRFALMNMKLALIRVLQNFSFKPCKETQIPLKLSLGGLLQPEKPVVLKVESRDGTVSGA
# UniProt P20815, whole entry: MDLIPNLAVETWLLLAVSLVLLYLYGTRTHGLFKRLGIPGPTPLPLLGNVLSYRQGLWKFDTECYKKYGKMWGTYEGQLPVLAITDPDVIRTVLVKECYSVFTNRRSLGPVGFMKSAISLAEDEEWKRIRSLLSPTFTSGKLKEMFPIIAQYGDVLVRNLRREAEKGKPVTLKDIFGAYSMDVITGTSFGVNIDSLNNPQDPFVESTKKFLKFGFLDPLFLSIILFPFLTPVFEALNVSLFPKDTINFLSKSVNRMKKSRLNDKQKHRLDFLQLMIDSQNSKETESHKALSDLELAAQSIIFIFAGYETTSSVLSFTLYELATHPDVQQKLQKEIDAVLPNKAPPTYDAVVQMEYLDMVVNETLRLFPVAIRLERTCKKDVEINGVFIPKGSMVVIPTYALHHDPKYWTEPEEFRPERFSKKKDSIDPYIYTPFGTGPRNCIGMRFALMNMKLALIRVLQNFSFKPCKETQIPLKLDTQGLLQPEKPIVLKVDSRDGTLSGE
# Legend:
# CYP3A4 = CYP3A4 (Homo sapiens, UniProt P08684); conditions: reported in vitro study
# CYP3A5 = CYP3A5 (Homo sapiens, UniProt P20815); conditions: reported in vitro study
compound,measurement,setting,value
CC(C)c1c(C(=O)Nc2ccccc2)c(-c2ccccc2)c(-c2ccc(F)cc2)n1CC[C@@H](O)C[C@@H](O)CC(=O)O [atorvastatin],share of atorvastatin metabolism CYP3A4 is responsible for,CYP3A4,85%
same,share of atorvastatin metabolism CYP3A5 is responsible for,CYP3A5,15%
